# Reference: article PMC12046000
# Protein sequences, listed by entry. Tags and fused reporters are not part of them.
# UniProt O75582: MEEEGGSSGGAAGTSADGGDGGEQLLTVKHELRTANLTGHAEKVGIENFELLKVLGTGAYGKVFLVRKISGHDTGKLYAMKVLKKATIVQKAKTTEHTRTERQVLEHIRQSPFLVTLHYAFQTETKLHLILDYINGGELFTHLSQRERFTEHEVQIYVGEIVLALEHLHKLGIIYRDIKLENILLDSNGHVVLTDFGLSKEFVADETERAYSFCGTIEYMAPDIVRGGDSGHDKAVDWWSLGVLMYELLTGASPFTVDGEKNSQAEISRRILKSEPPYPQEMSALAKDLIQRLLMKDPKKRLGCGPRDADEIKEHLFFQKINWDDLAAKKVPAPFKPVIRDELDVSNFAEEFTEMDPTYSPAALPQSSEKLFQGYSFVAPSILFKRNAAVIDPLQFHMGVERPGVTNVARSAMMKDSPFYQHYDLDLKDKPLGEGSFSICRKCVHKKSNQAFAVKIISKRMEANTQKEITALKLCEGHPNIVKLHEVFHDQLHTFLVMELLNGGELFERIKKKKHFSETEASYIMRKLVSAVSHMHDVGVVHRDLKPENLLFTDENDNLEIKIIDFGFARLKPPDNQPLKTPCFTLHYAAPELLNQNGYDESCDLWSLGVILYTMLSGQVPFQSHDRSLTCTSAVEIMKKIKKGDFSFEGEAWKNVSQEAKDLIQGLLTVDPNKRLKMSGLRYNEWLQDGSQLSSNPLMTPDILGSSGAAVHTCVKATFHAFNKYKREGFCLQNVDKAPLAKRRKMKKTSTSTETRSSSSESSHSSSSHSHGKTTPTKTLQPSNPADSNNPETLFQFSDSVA
# UniProt O95863: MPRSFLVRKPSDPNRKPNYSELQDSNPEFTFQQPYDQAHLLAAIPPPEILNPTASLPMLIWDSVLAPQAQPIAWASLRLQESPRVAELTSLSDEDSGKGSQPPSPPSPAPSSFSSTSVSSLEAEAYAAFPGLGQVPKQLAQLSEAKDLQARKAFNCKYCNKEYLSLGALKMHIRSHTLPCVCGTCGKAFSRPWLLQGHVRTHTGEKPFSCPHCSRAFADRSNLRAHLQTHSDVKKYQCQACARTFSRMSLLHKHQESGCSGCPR
# No constants are given. Whether binding was seen depends on the method and setting. Binding seen in cells or lysates may run through a third protein. Some entries that bind do so weakly or less than the wild type.
# Target: Flag–MSK1 (mitogen- and stress-activated protein kinase 1, wild type) (UniProt O75582)
# Assay: co-IP; HEK293T cells co-transfected with HA–Snail and Flag–MSK1; lysates (1% Triton X-100, 150 mM NaCl, pH 7.4) immunoprecipitated with anti-Flag or anti-HA, blotted with anti-HA or anti-Flag
substance,measurement,value
HA–Snail (from UniProt O95863 1-264),binding,binds
